Results deposited as PubChem BioAssay AID504808 (Drosophila RNAi Screening Center, 2011)
In all, the deposit lists about 21,000 reagents; below is a random part of those that have a named target and a result. Of all reagents, 18 (0.084%) are marked active. 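Raw counts without plate normalisation, one of two replicates; the ratio scores behind the calls were not deposited.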 Names joined by + are all predicted targets of the reagent. The record does not give: the amount of reagent, the time to read-out.

- Purpose: 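Chromatin factors that keep E2F targets switched off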 (primary screen)
- Cells: Drosophila S2 cells
- Reagents: long dsRNA against Drosophila genes
- Measured: 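Dual luciferase plate measurements; E2F-specific signal taken as firefly over Renilla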
- Scale: E2F firefly: higher = more E2F reporter activity; Renilla normaliser: higher = more normaliser reporter signal
- Call rule: 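Called active if the normalised E2F reporter went up by over 50%; the cutoff is arbitrary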

no.	gene	DRSC id	E2F firefly, rep 1	Renilla normaliser, rep 1	Outcome
1	CG7342	DRSC16230	62714	3303	inactive
2	CG2767	DRSC15451	72179	3560	inactive
3	CG12998	DRSC19518	1.44e5	5681	inactive
4	RabGGTb	DRSC00804	96835	3907	inactive
5	vir	DRSC04377	1.05e5	4700	inactive
6	RpS7	DRSC15394	62780	6029	inactive
7	RacGAP84C	DRSC12630	1.25e5	6292	inactive
8	Nedd4	DRSC11234	1.72e5	7818	inactive
9	CG42262 (retired record)	DRSC17628	74122	2661	inactive
10	CG42262 (retired record)	DRSC17974	1.29e5	6065	inactive
11	CG10481	DRSC02063	96880	3922	inactive
12	c-cup	DRSC00458	1.72e5	5164	inactive
13	CG33969 + fbl	DRSC11886	1.48e5	7249	inactive
14	CG13801	DRSC08335	93218	3712	inactive
15	dtr	DRSC01847	90084	3104	inactive
16	mim	DRSC05013	1.05e5	3588	inactive
17	CG3592	DRSC18315	1.26e5	6436	inactive
18	RecQ4	DRSC11265	1.26e5	3218	inactive
19	CG13398	DRSC02268	1.49e5	5185	inactive
20	CG13360	DRSC18536	1867	776	inactive
21	Aprt	DRSC08139	1.02e5	4164	inactive
22	CG10912	DRSC06009	70122	3043	inactive
23	Axs	DRSC19333	1.42e5	6710	inactive
24	garz	DRSC07193	88700	4180	inactive
25	CASK	DRSC14588	1.47e5	6766	inactive
26	CASK	DRSC16597	1.31e5	7106	inactive
27	CASK	DRSC16598	1.54e5	7244	inactive
28	CG18178	DRSC10302	71313	3185	inactive
29	CG34205	DRSC04149	1.04e5	4834	inactive
30	GILT1	DRSC16565	80384	3316	inactive
31	mael	DRSC11894	70168	3482	inactive
32	CG12909	DRSC06224	1.30e5	5425	inactive
33	pix	DRSC10533	81596	4405	inactive
34	Ars2	DRSC04893	80233	3404	inactive
